This data set has as its system IgG fraction derived from Guinea-pig 1. Nature of the data set: Fluorescence of Malachite Green dilutions mixed with the IgG fraction. It counts as binding. The protocol:
A series of dilutions of Malachite Green in PBS solutions are prepared by adding to the solutions, the IgG fraction according to the invention which has been derived from Guinea-pig 1 in certain amounts (with the final concentration being 0.2 μM), and by adjusting concentrations of the dye within the range of 0-12 nM.
Fluorescence of these dilutions is measured with a Hitachi Model 850 fluorescence spectrophotometer under the following conditions: in a quartz cell of optical path length of 1.0 cm at the excitation side; an excitation wavelength of 617 nm; an emission wavelength of 650 nm; a band-pass width of 5 nm at both excitation and emission sides; High gain of a photomultiplier; a time constant of 1.5 sec; and a fluorescence integration time of 30 sec. Thus, a concentration-fluorescence intensity curve is prepared (See FIG. 5).
The fluorescence intensity is expressed as output values (i.e., arbitrary, relative units) of the fluorescence spectrophotometer.

The structures appear in SMILES notation.

The text below walks through data of US6780978B2, “Fluorescence-activating antisera and IgG fraction therefrom” (Hamamatsu Photonics, K.K., priority 1998, dated 2004).

With `CN(C)c1ccc(C(=C2C=CC(=[N+](C)C)C=C2)c2ccccc2)cc1` [Malachite Green], the “sensitivity relative to the absorbance measurement” value (40 nM/0.12 nM) is “about 300 times”. Further, for the setting “with IgG fraction 0.2 μM”, the “concentration range of linear correlation between fluorescence intensities and concentrations” value fell in the range of 0.12 to 12 nM; the “lowest concentration detected by fluorescence measurement using the antibody” value is 0.12 nM.
